Measurements: article PMC6726635
These are yes or no findings as the source states them, for the method shown. Binding seen in cells or lysates may run through a third protein. Some entries that bind do so weakly or less than the wild type.

Amino acid sequences for entries named in this document (tags omitted).
UniProt P16671: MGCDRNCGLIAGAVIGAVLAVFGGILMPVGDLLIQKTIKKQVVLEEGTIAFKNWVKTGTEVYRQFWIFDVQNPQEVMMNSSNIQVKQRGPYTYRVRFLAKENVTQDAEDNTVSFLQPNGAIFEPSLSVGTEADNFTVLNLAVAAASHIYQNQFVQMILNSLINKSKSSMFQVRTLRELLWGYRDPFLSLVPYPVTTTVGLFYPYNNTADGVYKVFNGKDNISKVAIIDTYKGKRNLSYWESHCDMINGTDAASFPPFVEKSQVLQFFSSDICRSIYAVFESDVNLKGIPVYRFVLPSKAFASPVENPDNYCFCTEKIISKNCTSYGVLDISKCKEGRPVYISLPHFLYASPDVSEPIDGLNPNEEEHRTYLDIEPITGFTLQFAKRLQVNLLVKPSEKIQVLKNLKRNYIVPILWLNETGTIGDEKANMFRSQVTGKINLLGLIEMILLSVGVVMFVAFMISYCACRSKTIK

T1: Glypican 4 (GPC4), endogenous (human (endogenous in SW480, LoVo, RKO and CACO2)) (UniProt O75487)
T1 sequence: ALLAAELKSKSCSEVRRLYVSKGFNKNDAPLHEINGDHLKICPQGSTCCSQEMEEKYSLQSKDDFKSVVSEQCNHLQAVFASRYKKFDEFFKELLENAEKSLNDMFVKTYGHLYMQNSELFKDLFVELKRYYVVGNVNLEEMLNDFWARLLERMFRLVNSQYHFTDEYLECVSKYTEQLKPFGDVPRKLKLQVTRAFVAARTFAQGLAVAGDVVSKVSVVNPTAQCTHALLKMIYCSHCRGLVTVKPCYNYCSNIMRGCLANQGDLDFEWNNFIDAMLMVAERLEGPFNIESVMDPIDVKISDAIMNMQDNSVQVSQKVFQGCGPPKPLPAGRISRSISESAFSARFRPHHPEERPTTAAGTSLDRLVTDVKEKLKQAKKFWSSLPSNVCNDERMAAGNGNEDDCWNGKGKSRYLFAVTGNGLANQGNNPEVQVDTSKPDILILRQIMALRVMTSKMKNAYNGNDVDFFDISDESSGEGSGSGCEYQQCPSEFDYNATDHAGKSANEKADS


Columns and labels:
[1] = target: T1, Glypican 4 (GPC4), endogenous (human (endogenous in SW480, LoVo, RKO and CACO2)); experiment: co-IP; reciprocal; anti-GPC4 IP of cell lysates, IgG as negative control; antibody overnight at 4 C, protein A/G magnetic beads, washed with PBS; western blot for CD36
[2] = target: Flag-tagged CD36 (LV-CD36) (UniProt P16671); experiment: co-IP; anti-Flag IP of SW480 and LoVo LV-CD36 cell lysates against anti-IgG IP; 100 ug lysate protein, antibody overnight at 4 C, protein A/G magnetic beads 5 h at 4 C, washed four times with PBS; western blot for GPC4
[3] = target: CD36, endogenous (human (endogenous in RKO and CACO2)) (UniProt P16671); experiment: co-IP; endogenous; anti-CD36 IP of RKO and CACO2 cell lysates, IgG as negative control; antibody overnight at 4 C, protein A/G magnetic beads, washed with PBS; western blot for GPC4

binding [1] | binding [2] | binding [3] | Molecule
binds | – | – | CD36, endogenous (from UniProt P16671 1-472)
– | binds | binds | Glypican 4 (GPC4), endogenous (protein, UniProt O75487 19-529) ALLAAELKSKSCSEVRRLYVSKGFNKNDAPLHEINGDHLKICPQGSTCCSQEMEEKYSLQSKDDFKSVVSEQCNHLQAVFASRYKKFDEFFKELLENAEKSLNDMFVKTYGHLYMQNSELFKDLFVELKRYYVVGNVNLEEMLNDFWARLLERMFRLVNSQYHFTDEYLECVSKYTEQLKPFGDVPRKLKLQVTRAFVAARTFAQGLAVAGDVVSKVSVVNPTAQCTHALLKMIYCSHCRGLVTVKPCYNYCSNIMRGCLANQGDLDFEWNNFIDAMLMVAERLEGPFNIESVMDPIDVKISDAIMNMQDNSVQVSQKVFQGCGPPKPLPAGRISRSISESAFSARFRPHHPEERPTTAAGTSLDRLVTDVKEKLKQAKKFWSSLPSNVCNDERMAAGNGNEDDCWNGKGKSRYLFAVTGNGLANQGNNPEVQVDTSKPDILILRQIMALRVMTSKMKNAYNGNDVDFFDISDESSGEGSGSGCEYQQCPSEFDYNATDHAGKSANEKADS
